Structures can show the parent of a compound that is named as a salt. This is one part of the list. No stated cut-off is given here; in the data, active = 0.5 or less and inactive = the rest. Many values rest on one well or one pass, so single values are uncertain.
system: SK-MEL-28; assay: EEF2K protein level normalised to actin (western blot) after treatment (ratio (EEF2K/Actin)); higher = more EEF2K protein remaining (less EEF2K suppression); conditions: 5 µM; 24 h

Compound	EEF2K protein level normalised to actin
N.N.O=C([O-])C[O-].[Pt+2] [Nedaplatin]	inactive: 0.89
N=C1CCCN1Cc1[nH]c(=O)[nH]c(=O)c1Cl [Tipiracil hydrochloride]	inactive: 2.22
O=NN(CCCl)C(=O)NCCCl [Carmustine]	inactive: 1.2
CN(C)c1nc(N(C)C)nc(N(C)C)n1 [Altretamine]	inactive: 1.17
Cn1nnc2c(C(N)=O)ncn2c1=O [Temozolomide]	inactive: 0.84
Nc1ccn([C@@H]2O[C@H](CO)[C@@H](O)C2(F)F)c(=O)n1 [Gemcitabine HCl]	active: 0.31
Nc1ccccc1NC(=O)c1ccc(CNC(=O)OCc2cccnc2)cc1 [Entinostat (MS-275)]	inactive: 0.79
CC/C(=C(/CC)c1ccc(O)cc1)c1ccc(O)cc1 [Diethylstilbestrol]	inactive: 0.67
C=C1c2cccc(O)c2C(=O)C2=C(O)[C@]3(O)C(=O)C(C(N)=O)=C(O)[C@@H](N(C)C)[C@@H]3[C@@H](O)[C@H]12 [Methacycline HCl]	inactive: 0.62
Cc1cn(-c2cc(NC(=O)c3ccc(C)c(Nc4nccc(-c5cnccn5)n4)c3)cc(C(F)(F)F)c2)cn1 [Radotinib]	inactive: 1.3
O=c1[nH]c(=O)n(C2CCCO2)cc1F (stereo unspecified)	inactive: 0.73
CO[C@H]1C[C@@H]2CC[C@@H](C)[C@@](O)(O2)C(=O)C(=O)N2CCCC[C@H]2C(=O)O[C@H]([C@H](C)C[C@@H]2CC[C@@H](OP(C)(C)=O)[C@H](OC)C2)CC(=O)[C@H](C)/C=C(\C)[C@@H](O)[C@@H](OC)C(=O)[C@H](C)C[C@H](C)/C=C/C=C/C=C/1C [Ridaforolimus (Deforolimus, MK-8669)]	inactive: 1.13
O=S1(=O)CCN(CN2CCS(=O)(=O)NC2)CN1 [Taurolidine]	inactive: 1.2
CC#CCn1c(N2CCC[C@@H](N)C2)nc2c1c(=O)n(Cc1nc(C)c3ccccc3n1)c(=O)n2C [Linagliptin]	inactive: 0.51
COc1cc(Nc2c(C#N)cnc3cc(OCCCN4CCN(C)CC4)c(OC)cc23)c(Cl)cc1Cl [Bosutinib (SKI-606)]	inactive: 0.67
CC1(C)CCC(CN2CCN(c3ccc(C(=O)NS(=O)(=O)c4ccc(NCC5CCOCC5)c([N+](=O)[O-])c4)c(Oc4cnc5[nH]ccc5c4)c3)CC2)=C(c2ccc(Cl)cc2)C1 [Venetoclax (ABT-199, GDC-0199)]	inactive: 1
O=C(O)c1cc(O)c(O)c(O)c1 [Gallic acid]	inactive: 1.58
CC(=O)O[C@H]1C(=O)[C@@]2(C)[C@H]([C@H](OC(=O)c3ccccc3)[C@]3(O)C[C@H](OC(=O)[C@H](O)[C@@H](NC(=O)c4ccccc4)c4ccccc4)C(C)=C1C3(C)C)[C@]1(OC(C)=O)CO[C@@H]1C[C@@H]2O [Paclitaxel]	inactive: 0.89

Compound	EEF2K protein level normalised to actin
COc1ccc(S(=O)(=O)N(C(C)=O)c2ccccc2/C=C/c2cc[n+]([O-])cc2)cc1	active: 0.3
CC(C)C(=O)Nc1ccc([N+](=O)[O-])c(C(F)(F)F)c1 [Flutamide]	inactive: 0.58
C=C(NC(=O)C(=C)NC(=O)c1csc(C2=N[C@@H]3c4csc(n4)[C@H]4NC(=O)c5csc(n5)[C@H]([C@](C)(O)[C@@H](C)O)NC(=O)[C@H]5CSC(=N5)/C(=C/C)NC(=O)[C@H]([C@@H](C)O)NC(=O)c5csc(n5)[C@]3(CC2)NC(=O)[C@H](C)NC(=O)C(=C)NC(=O)[C@H](C)NC(=O)[C@H]([C@@H](C)CC)N[C@@H]2C=Cc3c([C@H](C)O)cc(nc3[C@H]2O)C(=O)O[C@@H]4C)n1)C(N)=O [Thiostrepton]	inactive: 1.04
C=CC(=O)Nc1cc(Nc2nccc(-c3cn(C)c4ccccc34)n2)c(OC)cc1N(C)CCN(C)C [Osimertinib mesylate]	active: 0.32
CCCCC1C(=O)N(c2ccccc2)N(c2ccccc2)C1=O [Phenylbutazone]	inactive: 1
Cc1cc(Nc2ncc(Cl)c(Nc3ccccc3S(=O)(=O)C(C)C)n2)c(OC(C)C)cc1C1CCNCC1 [Ceritinib (LDK378)]	inactive: 6.06
CCC(C)n1ncn(-c2ccc(N3CCN(c4ccc(OCC5COC(Cn6cncn6)(c6ccc(Cl)cc6Cl)O5)cc4)CC3)cc2)c1=O (stereo unspecified) [Itraconazole]	inactive: 1.1
Nc1nc(F)nc2c1ncn2[C@@H]1O[C@H](COP(=O)(O)O)[C@@H](O)[C@@H]1O [Fludarabine Phosphate]	inactive: 0.59
Nc1ccn([C@@H]2O[C@H](CO)[C@@H](O)C2(F)F)c(=O)n1 [Gemcitabine]	active: 0.17
CC1Oc2cc(cnc2N)-c2c(nn(C)c2C#N)CN(C)C(=O)c2ccc(F)cc21 (stereo unspecified)	inactive: 3.84
COc1cc2c(Oc3ccc4[nH]c(C)cc4c3F)ccnc2cc1OCC1(N)CC1 [Anlotinib (AL3818) dihydrochloride]	inactive: 0.51
C[C@]12CC[C@@H]3c4ccc(O)cc4C[C@@H](CCCCCCCCC[S+]([O-])CCCC(F)(F)C(F)(F)F)[C@H]3[C@@H]1CC[C@@H]2O (stereo partly specified) [Fulvestrant]	inactive: 3.35
FC(F)(F)c1ccc(CNc2ccc(Cc3c[nH]c4ncc(Cl)cc34)cn2)cn1 [Pexidartinib (PLX3397)]	inactive: 1.25
CC1=C(CC(=O)O)c2cc(F)ccc2/C1=C\c1ccc([S+](C)[O-])cc1 (stereo unspecified) [Sulindac]	inactive: 0.83
Cc1cnc(Nc2ccc(OCCN3CCCC3)cc2)nc1Nc1cccc(S(=O)(=O)NC(C)(C)C)c1	inactive: 4.37
NCCNc1ccc(NCCN)c2c1C(=O)c1ccncc1C2=O [Pixantrone Maleate]	active: 0.25
COc1ccc2[nH]c([S@@+]([O-])Cc3ncc(C)c(OC)c3C)nc2c1 [Esomeprazole sodium]	inactive: 1.67
CC/C(=C(\c1ccccc1)c1ccc(OCCN(C)C)cc1)c1ccccc1 [Tamoxifen]	inactive: 1.78

Not a retest: an excerpt of the list.
Compound	EEF2K protein level normalised to actin
CC#CCn1c(N2CCC[C@@H](N)C2)nc2c1c(=O)n(Cc1nc(C)c3ccccc3n1)c(=O)n2C [Linagliptin]	inactive: 0.51
COc1cc(Nc2c(C#N)cnc3cc(OCCCN4CCN(C)CC4)c(OC)cc23)c(Cl)cc1Cl [Bosutinib (SKI-606)]	inactive: 0.67

— the supplement of paper PMC8858631
